From patent US20050089926A1, “Ligand sensing fluorescent acetylcholinesterase for detection of organophosphate activity” (priority 2002, published 2005)
Numbering of substitutions follows the chain as printed. Names may count otherwise. Where two headings read alike, the source gives them in different places.

How the values were obtained:
[1] = test system: acrylodan-labeled mouse AChE mutants; experiment: Acrylodan fluorescence emission with saturating decamethonium; conditions: for Acrylodan Emission Maxima, Saturating Decamethonium: acrylodan-labeled mutant; for Chromic Shift / Relative Quantum Yield: saturating decamethonium
[2] = test system: acrylodan-labeled mouse AChE mutants; experiment: Acrylodan fluorescence emission with saturating tacrine; conditions: for Acrylodan Emission Maxima, Saturating Tacrine: acrylodan-labeled mutant; for Chromic Shift / Relative Quantum Yield: saturating tacrine
[3] = test system: mouse AChE mutants labeled with acrylodan; conditions: for Acrylodan Emission Maxima, Conjugated TFK^0: acrylodan-labeled mutant; for Chromic Shift / Relative Quantum Yield: conjugated TFK^0
[4] = test system: acrylodan-labeled mouse AChE mutants; experiment: Acrylodan fluorescence emission with saturating huperzine A; conditions: for Acrylodan Emission Maxima, Saturating Huperzine A: acrylodan-labeled mutant; for Chromic Shift / Relative Quantum Yield: saturating huperzine A
[5] = test system: acrylodan-labeled mouse AChE mutants; experiment: Acrylodan fluorescence emission with saturating BW284c51; conditions: for Acrylodan Emission Maxima, Saturating BW284c51: acrylodan-labeled mutant; for Chromic Shift / Relative Quantum Yield: saturating BW284c51
[6] = test system: mouse AChE mutants labeled with acrylodan; experiment: Acrylodan fluorescence emission with conjugated DDVP; conditions: for Acrylodan Emission Maxima, Conjugated DDVP: acrylodan-labeled mutant; for Chromic Shift / Relative Quantum Yield: conjugated DDVP
[7] = test system: mouse AChE mutants labeled with acrylodan; experiment: Acrylodan fluorescence emission, unliganded enzyme; conditions: acrylodan-labeled mutant
[8] = test system: acrylodan-labeled mouse AChE mutants; experiment: Acrylodan fluorescence emission with saturating edrophonium; conditions: for Acrylodan Emission Maxima, Saturating Edrophonium: acrylodan-labeled mutant; for Chromic Shift / Relative Quantum Yield: saturating edrophonium
[9] = test system: mouse AChE mutants labeled with acrylodan; experiment: Acrylodan fluorescence emission with conjugated TFK+; conditions: for Acrylodan Emission Maxima, Conjugated TFK+: acrylodan-labeled mutant; for Chromic Shift / Relative Quantum Yield: conjugated TFK+
[10] = test system: acrylodan-labeled mouse AChE mutants; conditions: edrophonium, tacrine or huperzine bound
[11] = test system: mouse AChE mutants labeled with acrylodan; conditions: acrylodan-labeled mutant, unliganded; data from Boyd et al. 2000; cited from earlier work
[12] = test system: mouse AChE mutants labeled with acrylodan; conditions: saturating fasciculin; data from Boyd et al. 2000; cited from earlier work

B1: E84C (protein, UniProt P21836 32-614, looked up, variant E84C)
Acetylcholinesterase: EGREDPQLLVRVRGGQLRGIRLKAPGGPVSAFLGIPFAEPPVGSRRFMPPEPKRPWSGVLDATTFQNVCYQYVDTLYPGFEGTCMWNPNRELSEDCLYLNVWTPYPRPASPTPVLIWIYGGGFYSGAASLDVYDGRFLAQVEGAVLVSMNYRVGTFGFLALPGSREAPGNVGLLDQRLALQWVQENIAAFGGDPMSVTLFGESAGAASVGMHILSLPSRSLFHRAVLQSGTPNGPWATVSAGEARRRATLLARLVGCPPGGAGGNDTELIACLRTRPAQDLVDHEWHVLPQESIFRFSFVPVVDGDFLSDTPEALINTGDFQDLQVLVGVVKDEGSYFLVYGVPGFSKDNESLISRAQFLAGVRIGVPQASDLAAEAVVLHYTDWLHPEDPTHLRDAMSAVVGDHNVVCPVAQLAGRLAAQGARVYAYIFEHRASTLTWPLWMGVPHGYEIEFIFGLPLDPSLNYTTEERIFAQRLMKYWTNFARTGDPNDPRDSKSPQWPPYTTAAQQYVSLNLKPLEVRRGLRAQTCAFWNRFLPKLLSATDTLDEAERQWKAEFHRWSSYMVHWKNQFDHYSKQERCSDL
Q: Which results are given for B1?
A: Acrylodan Emission Maxima, Saturating Decamethonium [1]: 505 nm; Chromic Shift [1]: 28 nm; Relative Quantum Yield [1]: 0.59; Acrylodan Emission Maxima, Saturating Tacrine [2]: 510 nm; Chromic Shift [2]: 33 nm; Relative Quantum Yield [2]: 0.45; Acrylodan Emission Maxima, Conjugated TFK^0 [3]: 507 nm; Chromic Shift [3]: 30 nm; Relative Quantum Yield [3]: 0.59; Acrylodan Emission Maxima, Saturating Huperzine A [4]: 510 nm; Chromic Shift [4]: 33 nm; Relative Quantum Yield [4]: 0.55; Acrylodan Emission Maxima, Saturating BW284c51 [5]: 512 nm; Chromic Shift [5]: 35 nm; Relative Quantum Yield [5]: 0.47; Acrylodan Emission Maxima, Conjugated DDVP [6]: 496 nm; Chromic Shift [6]: 19 nm; Relative Quantum Yield [6]: 0.39; Acrylodan Emission Maxima, No Fasciculin [7]: 477 nm; Acrylodan Emission Maxima, Saturating Edrophonium [8]: 510 nm; Chromic Shift [8]: 33 nm; Relative Quantum Yield [8]: 0.60; Acrylodan Emission Maxima, Conjugated TFK+ [9]: 512 nm; Chromic Shift [9]: 35 nm; Relative Quantum Yield [9]: 0.52; acrylodan emission maximum upon inhibitor binding [10]: 510 nm

B2: acrylodan-L76C (protein, UniProt P21836 32-614, looked up, variant L76C)
Acetylcholinesterase: B1 Acetylcholinesterase with L76C, C84E
modifications: acrylodan label
Q: Which “Acrylodan Emission Maxima, No Fasciculin” value [7] does the source give for B2 here?
A: 505 nm

Q: And the “acrylodan emission maximum upon inhibitor binding” value [10]?
A: 509 nm

B3: A262C (protein, UniProt P21836 32-614, looked up, variant A262C)
Acetylcholinesterase: B1 Acetylcholinesterase with C84E, A262C
Q: What does the source list for B3?
A: Acrylodan Emission Maxima, Saturating Decamethonium [1]: 517 nm; Chromic Shift [1]: 0 nm; Relative Quantum Yield [1]: 0.97; Acrylodan Emission Maxima, Saturating Tacrine [2]: 517 nm; Chromic Shift [2]: 0 nm; Relative Quantum Yield [2]: 0.97; Acrylodan Emission Maxima, Conjugated TFK^0 [3]: 517 nm; Chromic Shift [3]: 0 nm; Relative Quantum Yield [3]: 0.97; Acrylodan Emission Maxima, Saturating Huperzine A [4]: 517 nm; Chromic Shift [4]: 0 nm; Relative Quantum Yield [4]: 0.97; Acrylodan Emission Maxima, No Fasciculin [11]: 517 nm; Acrylodan Emission Maxima, Saturating BW284c51 [5]: 517 nm; Chromic Shift [5]: 0 nm; Relative Quantum Yield [5]: 0.97; Chromic Shift [12]: 0 nm; Relative Quantum Yield [12]: 0.97; Acrylodan Emission Maxima, Conjugated DDVP [6]: 517 nm; Chromic Shift [6]: 0 nm; Relative Quantum Yield [6]: 0.97; Acrylodan Emission Maxima, Saturating Edrophonium [8]: 517 nm; Chromic Shift [8]: 0 nm; Relative Quantum Yield [8]: 0.97; Acrylodan Emission Maxima, Conjugated TFK+ [9]: 517 nm; Chromic Shift [9]: 0 nm; Relative Quantum Yield [9]: 0.97

B4: H287C (protein, UniProt P21836 32-614, looked up, variant H287C)
Acetylcholinesterase: B1 Acetylcholinesterase with C84E, H287C
Q: Which results are given for B4?
A: Acrylodan Emission Maxima, Saturating Decamethonium [1]: 517 nm; hypsochromic shift ([1]; addition of decamethonium, acrylodan conjugate): 7 nm; Chromic Shift [1]: −7 nm; Relative Quantum Yield [1]: 1.76; Acrylodan Emission Maxima, Saturating Tacrine [2]: 524 nm; Chromic Shift [2]: 0 nm; Relative Quantum Yield [2]: 1.13; Acrylodan Emission Maxima, Conjugated TFK^0 [3]: 524 nm; Chromic Shift [3]: 0 nm; Relative Quantum Yield [3]: 0.90; Acrylodan Emission Maxima, Saturating Huperzine A [4]: 524 nm; Chromic Shift [4]: 0 nm; Relative Quantum Yield [4]: 1.13; Acrylodan Emission Maxima, No Fasciculin [11]: 524 nm; Acrylodan Emission Maxima, Saturating BW284c51 [5]: 510 nm; Chromic Shift [5]: −14 nm; Relative Quantum Yield [5]: 2.73; Chromic Shift [12]: −17 nm; Relative Quantum Yield [12]: 5.0; Acrylodan Emission Maxima, Conjugated DDVP [6]: 524 nm; Chromic Shift [6]: 0 nm; Relative Quantum Yield [6]: 1.03; Acrylodan Emission Maxima, Saturating Edrophonium [8]: 524 nm; Chromic Shift [8]: 0 nm; Relative Quantum Yield [8]: 1.13; Acrylodan Emission Maxima, Conjugated TFK+ [9]: 524 nm; Chromic Shift [9]: 0 nm; Relative Quantum Yield [9]: 1.07
